These are yes or no findings as the source states them, for the method shown. For part of these data: In cells and extracts the contact can be indirect. Some binding calls cover weakened binding; strength is not graded here. Sequences can lack the tags named with a protein.
T1: AtRALF1 mature peptide fused to the GAL4 DNA-binding domain (AtRALF1-pGBKT7) (Arabidopsis thaliana) (UniProt Q9SRY3)
T1 sequence: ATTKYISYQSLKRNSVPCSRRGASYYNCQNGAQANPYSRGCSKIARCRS

By UniProt entry, the sequences of proteins in these tests, tags left out. Residues count along the entry.
UniProt Q9FL28, residues 24-806: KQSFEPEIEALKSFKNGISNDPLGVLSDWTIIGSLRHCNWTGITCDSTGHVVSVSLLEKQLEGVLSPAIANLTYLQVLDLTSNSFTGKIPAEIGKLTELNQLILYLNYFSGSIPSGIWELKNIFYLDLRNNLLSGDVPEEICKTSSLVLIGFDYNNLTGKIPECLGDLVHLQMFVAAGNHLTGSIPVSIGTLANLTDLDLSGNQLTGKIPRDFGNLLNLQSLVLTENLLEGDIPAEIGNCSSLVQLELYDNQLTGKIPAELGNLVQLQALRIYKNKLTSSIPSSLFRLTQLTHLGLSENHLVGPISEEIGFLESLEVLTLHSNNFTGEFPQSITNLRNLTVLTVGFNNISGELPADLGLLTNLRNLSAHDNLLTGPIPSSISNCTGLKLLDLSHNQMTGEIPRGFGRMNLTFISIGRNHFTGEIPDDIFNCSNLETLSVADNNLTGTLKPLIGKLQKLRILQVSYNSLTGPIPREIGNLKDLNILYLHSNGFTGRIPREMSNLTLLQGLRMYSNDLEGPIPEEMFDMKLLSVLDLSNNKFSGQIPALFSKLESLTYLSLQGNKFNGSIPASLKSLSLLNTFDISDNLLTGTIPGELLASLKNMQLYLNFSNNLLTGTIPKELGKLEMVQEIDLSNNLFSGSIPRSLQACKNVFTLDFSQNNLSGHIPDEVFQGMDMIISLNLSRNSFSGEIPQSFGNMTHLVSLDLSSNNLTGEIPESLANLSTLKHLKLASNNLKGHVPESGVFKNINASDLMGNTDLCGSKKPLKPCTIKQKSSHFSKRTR

T2: Entire BAK1 protein fused to GFP (BAK1-GFP) (Arabidopsis thaliana) (UniProt Q94F62)
T2 sequence: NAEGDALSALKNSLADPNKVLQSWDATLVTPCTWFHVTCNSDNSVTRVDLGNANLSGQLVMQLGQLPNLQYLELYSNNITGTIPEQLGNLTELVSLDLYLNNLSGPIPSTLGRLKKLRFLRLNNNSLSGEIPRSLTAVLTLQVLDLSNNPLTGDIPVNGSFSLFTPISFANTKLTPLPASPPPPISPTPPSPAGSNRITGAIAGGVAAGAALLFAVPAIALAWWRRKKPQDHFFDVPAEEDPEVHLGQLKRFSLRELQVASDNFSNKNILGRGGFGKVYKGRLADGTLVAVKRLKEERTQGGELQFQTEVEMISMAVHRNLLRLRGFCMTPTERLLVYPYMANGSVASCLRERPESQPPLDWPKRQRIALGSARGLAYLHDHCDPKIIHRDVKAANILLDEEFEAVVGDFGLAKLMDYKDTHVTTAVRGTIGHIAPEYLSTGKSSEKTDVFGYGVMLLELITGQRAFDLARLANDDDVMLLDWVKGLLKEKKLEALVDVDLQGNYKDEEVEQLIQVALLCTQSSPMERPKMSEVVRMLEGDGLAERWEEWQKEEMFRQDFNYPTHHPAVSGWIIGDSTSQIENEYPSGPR


Key:
[1] = biological target: T1, AtRALF1 mature peptide fused to the GAL4 DNA-binding domain (AtRALF1-pGBKT7) (Arabidopsis thaliana); test: two-hybrid; RALF peptide fused to the GAL4 DNA-binding domain (pGBKT7) as bait, extracellular domains or truncations fused to the GAL4 activation domain (pGADT7); yeast AH109; growth on synthetic complete medium lacking leucine, tryptophan and histidine
[2] = biological target: T2, Entire BAK1 protein fused to GFP (BAK1-GFP) (Arabidopsis thaliana); test: co-IP; microsomal fraction of N. benthamiana leaves expressing BAK1-GFP (0.5% Triton-X) incubated with 600 nM peptide for 1 h at 4 °C; anti-GFP antibody and protein A Sepharose beads; only the binder purified

binding [1] | binding [2] | Molecule
no binding | – | Extracellular domain of FLS2 fused to the GAL4 activation domain (FLS2-ECD, pGADT7) (from UniProt Q9FL28 24-806) (domain or fragment)
no binding | – | Extracellular domain of BAK7 fused to the GAL4 activation domain (BAK7-ECD, pGADT7) (domain or fragment, UniProt Q9SKG5 34-234) DALTQLKNSLSSGDPANNVLQSWDATLVTPCTWFHVTCNPENKVTRVDLGNAKLSGKLVPELGQLLNLQYLELYSNNITGEIPEELGDLVELVSLDLYANSISGPIPSSLGKLGKLRFLRLNNNSLSGEIPMTLTSVQLQVLDISNNRLSGDIPVNGSFSLFTPISFANNSLTDLPEPPPTSTSPTPPPPSGGQMTAAIAG
– | binds | ATTKYISYQSLKRNSVPCSRRGASYYNCQNGAQANPYSRGCSKIARCRS (peptide, UniProt Q9SRY3 72-120) [Recombinant His-tagged AtRALF1]

— article PMC5656322, “BAK1 is involved in AtRALF1-induced inhibition of root cell expansion” (PLoS Genetics, 2017)
